From article PMC9245421, “The VvWRKY37 Regulates Bud Break in Grape Vine Through ABA-Mediated Signaling Pathways”
For at least one entry, the source does not settle the construct or the ends of the probe. Negatives hold for the conditions tested. For part of these data: At least one verdict was read from the data and is not stated in words by the source.

Key:
VvWRKY37-HIS [1] = test: EMSA; conditions: EMSA: 2 ul of 5x buffer (50% glycerol, 50 mM MgCl2, 5 mM EDTA, 10 mM DTT, 500 mM KCl, 250 mM HEPES pH 7.4) in 10 ul, i.e. 1x = 10% glycerol, 10 mM MgCl2, 1 mM EDTA; recombinant protein; protein details: 6xHis (pET32a); label: biotin
VvWRKY37-HIS [2] = test: competition with a labelled probe; conditions: 100-fold unlabeled vs PtA2-P2; EMSA: 2 ul of 5x buffer (50% glycerol, 50 mM MgCl2, 5 mM EDTA, 10 mM DTT, 500 mM KCl, 250 mM HEPES pH 7.4) in 10 ul, i.e. 1x = 10% glycerol, 10 mM MgCl2, 1 mM EDTA; recombinant protein; protein details: 6xHis (pET32a)

## CAATTTCCTCTCATTGACTTGTTTCCCACA (double strand) [VvA4.2-P1]
VvWRKY37-HIS [1]
  binding result: binds

## CCGACGGACTGAATCCGTCACCATTTGACAGTAGCTGCCACA (double strand) [PtA2-P3]
VvWRKY37-HIS [1]
  binding result: no binding

## GGTAAATCACGATATAATCAACGGAATAAAATCCGTCGG (double strand) [PtA2-mP2]
VvWRKY37-HIS [2]
  binding result: no binding

## GGTAAATCACGATATCATTGACGGAATAAAATCCGTCGG (double strand) [PtA2-P2]
VvWRKY37-HIS [1]
  binding result: binds

## GGTATCAATAAATTGACTATTTTTTCTTTA (double strand) [VvA4.2-P3]
VvWRKY37-HIS [1]
  binding result: no binding

## TCATCTTTTCTTAATAGAATGACTAAGTAGCAAGTAGTATA (double strand) [PtA2-P1]
VvWRKY37-HIS [1]
  binding result: no binding

## TCTTCTCAGTTGGAAACATTGACCGCCACTTCTTTCGCCCTTT (double strand) [W37-P3]
VvWRKY37-HIS [1]
  binding result: binds

## TGATTTTGACCCTTTTTATGACATTACATA (double strand) [VvA4.2-P2]
VvWRKY37-HIS [1]
  binding result: no binding

## TTGGTGACAAGAAAAAATACATTGACTGAGAGCAATGAAGATT (double strand) [W37-P4]
VvWRKY37-HIS [1]
  binding result: binds
